Literature values in patent US11554113B2, “Methods for treating disorders or diseases associated with hyperlipidemia and hypercholesterolemia while minimizing side-effects” (The Trustees of the University of Pennsylvania, priority 2004, dated 2023).
For at least one compound, name, drawing or mass did not settle the structure.

Test system: LDL-C
Conditions: genotype-confirmed hoFH, maximal dose of statins 80 mg/day; cited from earlier work

## CCC(C)(C)C(=O)O[C@H]1C[C@@H](C)C=C2C=C[C@H](C)[C@H](CC[C@@H]3C[C@@H](O)CC(=O)O3)[C@H]21 [simvastatin]
  mean LDL-C reduction: about 5.5%
